Values quoted from earlier work as cited in US20220193013A1, “Pharmaceutical Composition for Treatment or Prevention of Multiple Inflammatory Disorders” (priority 2020, published 2022).
At least one compound was matched to its structure with a doubt left.

Tested on: air pouch model of inflammation, C57BL/6 mice
Details: by gavage; earlier studies with this model, Romano et al. (1997); cited from earlier work

Compound: C[C@@H]1C[C@H]2[C@@H]3CCC4=CC(=O)C=C[C@]4(C)[C@@]3(F)[C@@H](O)C[C@]2(C)[C@@]1(O)C(=O)CO [dexamethasone]
- TNF levels: decreased
